From patent US9604989B2, “Imidazopyridazines as Akt kinase inhibitors” (Bayer Intellectual Property GmbH, priority 2011, dated 2017) come the findings set out here.

One experiment has as its system phospho-AKT at S473. The experiment is described as follows: Cellular p-AKT1/2/3-S473 assay in KPL-4 cells. Format: cell-based. The settings on record: Homo sapiens, KPL4; KPL-4 breast tumour cell line, compound treatment 2 hours; read-out: pAKT-S473 median IC50.
For the next experiment, the system named is p-4E-BP1 at T70. The experiment is described as follows: Cellular p-4E-BP1-T70 assay in KPL-4 cells. The class given is cell-based. The settings on record: Homo sapiens, KPL4; KPL-4 breast tumour cell line, compound treatment 2 hours; read-out: P4EBP1-T70 median IC50.

Usually IC50 stands for the concentration that gives 50% inhibition.

As to `NC(=O)c1ccc2nc(-c3ccc(C4(N)CCC4)cc3)c(-c3ccccc3)n2n1` [Example 5, 2-[4-(1-Aminocyclobutyl)phenyl]-3-phenylimidazo[1,2-b]pyridazine-6-carboxamide], the results for the concentration for half-maximal inhibition (IC50) in the experiment with phospho-AKT at S473 and in the experiment with p-4E-BP1 at T70 were 0.0009 µM and 0.035 µM, respectively.
